# PubChem BioAssay AID248 (DTP/NCI, 2004)
# The list does not hold the whole screen: it gathers tests that were run many times, whatever their T/C, doses with no T/C, and many T/C values between a quarter and a half above the control. Other doses and runs of a compound stand elsewhere. T/C: endpoint of the treated group in % of that of the vehicle group. Some entries give survivors of the animals treated and no T/C: the source files T/C as zero there, which appears to mark a toxic dose or a test without result, not a measured value. Some survivor counts are full or nearly so, which does not show that the dose was tolerated: survival well below the control is almost never listed, so the zero probably covers shortened survival too. Survivors were counted at the toxicity check, usually on the fifth day, unless a day is given; later deaths do not show. Schedules are NCI's codes, taken here to give the interval after Q, in days (D) or hours (H), and the number of doses after X. Some schedule codes hold Z or #, which are not explained here. Some molecules as drawn cover several salts, stereoisomers or complexes of the source; a dose is that of the sample tested. For survival time, the PubChem record calls one and a half times the control and up active, and a quarter to a half above the control has no call in these data; cut-offs in other NCI protocols can differ.
# Tested on: L1210 leukemia ip in BDF1 mice, survival T/C
# Experiment: NCI In Vivo Anticancer Drug Screen. Data for tumor model L1210 Leukemia (intraperitoneal) in B6D2F1 (BDF1) mice
# Conditions: T/C endpoint: mean survival time, higher T/C = longer survival
# [1] = dose: 100.0 mg/kg/injection, schedule: Q01DX009 (ip), vehicle: Klucel (hydroxypropylcellulose) (HPC)
# [2] = dose: 200.0 mg/kg/injection, schedule: Q01DX009 (ip), vehicle: Klucel (hydroxypropylcellulose) (HPC)
# [3] = dose: 400.0 mg/kg/injection, schedule: Q04DX002 (ip), vehicle: saline
# [4] = dose: 100.0 mg/kg/injection, schedule: Q01DX009 (ip), vehicle: saline
# [5] = dose: 50.0 mg/kg/injection, schedule: Q01DX001 (ip), vehicle: saline
# [6] = dose: 100.0 mg/kg/injection, schedule: Q01DX001 (ip), vehicle: saline
# [7] = dose: 200.0 mg/kg/injection, schedule: Q01DX001 (ip), vehicle: saline
# [8] = dose: 400.0 mg/kg/injection, schedule: Q01DX001 (ip), vehicle: saline
# [9] = dose: 100.0 mg/kg/injection, schedule: Q01DX009 (ip), vehicle: saline with Tween-80
# [10] = dose: 400.0 mg/kg/injection, schedule: Q01DX009 (ip), vehicle: saline with Tween-80
# [11] = dose: 400.0 mg/kg/injection, schedule: Q01DX009 (ip), vehicle: Klucel (hydroxypropylcellulose) (HPC)
# [12] = dose: 200.0 mg/kg/injection, schedule: Q04DX003 (ip), vehicle: saline
# [13] = dose: 400.0 mg/kg/injection, schedule: Q04DX003 (ip), vehicle: saline
# [14] = dose: 100.0 mg/kg/injection, schedule: Q04DX003 (ip), vehicle: saline
structure (smiles),measurement,setting,value
CC(C)Oc1ccc2c(c1)N(CCC1CCCCN1)c1ccccc1S2 (stereo not given),survivor count,"dose: 50.0 mg/kg/injection, schedule: Q01DX009 (ip), vehicle: Klucel (hydroxypropylcellulose) (HPC)",6 of 6
same,survivor count,[1],0 of 6
same,survivor count,[2],0 of 6
CCCCCP(=O)(O)O,survivor count,[3],1 of 3
CC(=O)Oc1cc(C(C)C)c(OCCN(C)C)cc1C,survivor count,[4],3 of 6
same,survivor count,"dose: 200.0 mg/kg/injection, schedule: Q01DX009 (ip), vehicle: saline",0 of 6
same,survivor count,"dose: 400.0 mg/kg/injection, schedule: Q01DX009 (ip), vehicle: saline",0 of 6
CC(C)OCCSP(SCCOC(C)C)SCCOC(C)C,survivor count,"dose: 100.0 mg/kg/injection, schedule: Q04DX003 (ip), vehicle: saline with Tween-80",6 of 6
same,survivor count,"dose: 200.0 mg/kg/injection, schedule: Q04DX003 (ip), vehicle: saline with Tween-80",1 of 6
same,survivor count,"dose: 400.0 mg/kg/injection, schedule: Q04DX003 (ip), vehicle: saline with Tween-80",2 of 6
O=[N+]([O-])/C=C/c1ccc([N+](=O)[O-])o1,survivor count,"dose: 25.0 mg/kg/injection, schedule: Q01DX001 (ip), vehicle: Klucel (hydroxypropylcellulose) (HPC)",0 of 6
same,survivor count,"dose: 50.0 mg/kg/injection, schedule: Q01DX001 (ip), vehicle: Klucel (hydroxypropylcellulose) (HPC)",0 of 6
SCCCN1CCCCC1,survivor count,[5],2 of 4
same,survivor count,[6],0 of 4
same,survivor count,[7],0 of 4
same,survivor count,[8],0 of 4
O=C/C=C\c1ccccc1O,survivor count,[8],0 of 6
N#CCCN(C(=O)COc1ccc(Cl)cc1Cl)C1CCCCC1,survivor count,"dose: 400.0 mg/kg/injection, schedule: Q04DX003 (ip), vehicle: Klucel (hydroxypropylcellulose) (HPC)",6 of 6
CC(Oc1ccccc1)C(=O)NC(=S)Nc1cc(C(F)(F)F)ccc1Cl (stereo not given),survivor count,"dose: 400.0 mg/kg/injection, schedule: Q01DX009 (ip), vehicle: other",3 of 3
CCCCCCCCCCCC(=O)CC,survivor count,[9],5 of 6
Oc1ccc(CCCc2ccc3c(c2)OCO3)cc1,survivor count,"dose: 400.0 mg/kg/injection, schedule: Q04DX002 (ip), vehicle: saline with Tween-80",1 of 3
Cln1nnc2ccccc21,survivor count,"dose: 400.0 mg/kg/injection, schedule: Q04DX002 (ip), vehicle: other",1 of 3
C/C(Cl)=C/C(=O)O,T/C,"dose: 100.0 mg/kg/injection, schedule: Q04DX002 (ip), vehicle: saline",132 % of control
same,survivor count,[3],2 of 3
O=C(Nc1cccc(NC(=O)Nc2cccc(C3=NCCN3)c2)c1)Nc1cccc(C2=NCCN2)c1,T/C,"dose: 25.0 mg/kg/injection, schedule: Q01DX Z (ip), vehicle: carboxymethylcellulose (CMC)",140 % of control
same,T/C,"dose: 40.0 mg/kg/injection, schedule: Q01DX Z (ip), vehicle: carboxymethylcellulose (CMC)",134 % of control
same,T/C,"dose: 55.5 mg/kg/injection, schedule: Q01DX Z (ip), vehicle: carboxymethylcellulose (CMC)",126 % of control
same,T/C,"dose: 90.0 mg/kg/injection, schedule: Q01DX Z (ip), vehicle: carboxymethylcellulose (CMC)",128 % of control
same,survivor count,"dose: 135.0 mg/kg/injection, schedule: Q01DX Z (ip), vehicle: saline",2 of 6
CCOC(OCC)C(=O)C(C#N)c1ccc(Cl)c(Cl)c1 (stereo not given),survivor count,[6],0 of 6
same,survivor count,[7],0 of 6
same,survivor count,[8],0 of 6
CCCCCCCCc1ccc(O)c(Cl)c1,survivor count,[10],6 of 6
CCOC(=O)NN1C(=O)c2cccc3c([N+](=O)[O-])ccc(c23)C1=O,survivor count,[1],4 of 6
same,survivor count,[2],1 of 6
same,survivor count,[11],0 of 6
CC(=NCC(=O)O)c1ccccc1,survivor count,[12],0 of 6
same,survivor count,[13],0 of 6
O=C(O)/C=C\c1c[nH]c2nccnc12,survivor count,[4],3 of 6
same,survivor count,[12],0 of 6
same,survivor count,[13],0 of 6
O=C(O)c1ccc2c([N+](=O)[O-])cccc2n1,survivor count,[11],6 of 6
O=C1C[C@H]2[C@H](CO)[C@@H](OC(=O)c3ccc(-c4ccccc4)cc3)C[C@H]2O1,survivor count,[9],0 of 6
same,survivor count,"dose: 200.0 mg/kg/injection, schedule: Q01DX009 (ip), vehicle: saline with Tween-80",4 of 6
same,survivor count,[10],1 of 6
CCN(CC)CCC(=O)c1cccc2c1OC(C)(C)C2,survivor count,[14],4 of 6
same,survivor count,[12],0 of 6
same,survivor count,[13],0 of 6
COc1c(OC2OC(CO)C(O)C(O)C2O)cc2c(c1OC)-c1ccc(SC)c(=O)cc1C(NC(C)=O)CC2 (stereo not given),survivor count,[5],1 of 6
same,survivor count,[6],1 of 6
same,survivor count,[7],2 of 6
same,survivor count,[8],0 of 6
CCCc1ccc(OCC=C(C)C)cc1,survivor count,"dose: 200.0 mg/kg/injection, schedule: Q04DX002 (ip), vehicle: saline with Tween-80",3 of 3
O=C1c2ccccc2-c2ccc(-c3ccccc3)c3cccc1c23,survivor count,"dose: 100.0 mg/kg/injection, schedule: Q04DX002 (ip), vehicle: saline with Tween-80",3 of 3
Cc1ccc2c(c1)nc1c3ccccc3nc(-c3ccccc3N)n21,survivor count,[10],6 of 6
CC(C)NC(=O)c1cc(NC(=O)c2ccc(C(=O)Nc3cc(C(=O)NC(C)C)cc(C4=NCCN4)c3)cc2)cc(C2=NCCN2)c1,survivor count,"dose: 75.0 mg/kg/injection, schedule: Q01DX015 (ip), vehicle: water",2 of 6
same,survivor count,"dose: 150.0 mg/kg/injection, schedule: Q01DX015 (ip), vehicle: water",0 of 6
CCCCCCCCCCCCCCCCCC[N+](C)(C)C (tested in a mixture with another compound),survivor count,"dose: 8.0 mg/kg/injection, schedule: Q01DX015 (ip), vehicle: carboxymethylcellulose (CMC)",2 of 4
same,survivor count,"dose: 12.0 mg/kg/injection, schedule: Q04DX003 (ip), vehicle: saline sonified",6 of 6
same,survivor count,"dose: 16.0 mg/kg/injection, schedule: Q01DX015 (ip), vehicle: carboxymethylcellulose (CMC)",2 of 6
same,survivor count,"dose: 16.0 mg/kg/injection, schedule: Q01DX015 (ip), vehicle: saline",1 of 6
same,survivor count,"dose: 20.0 mg/kg/injection, schedule: Q01DX015 (ip), vehicle: saline",0 of 6
same,survivor count,"dose: 32.0 mg/kg/injection, schedule: Q04DX003 (ip), vehicle: saline",1 of 6
same,survivor count,[5],2 of 4
same,survivor count,"dose: 50.0 mg/kg/injection, schedule: Q01DX009 (ip), vehicle: saline",0 of 6
same,survivor count,"dose: 64.0 mg/kg/injection, schedule: Q04DX003 (ip), vehicle: saline",1 of 6
same,survivor count,[6],0 of 4
same,survivor count,[14],1 of 6
same,survivor count,"dose: 128.0 mg/kg/injection, schedule: Q04DX003 (ip), vehicle: saline",0 of 6
same,survivor count,[7],0 of 4
CCCN1CC(Br)C(=O)NC1=O (stereo not given),survivor count,"dose: 200.0 mg/kg/injection, schedule: Q01DX Z (ip), vehicle: methylcellulose (MC)",6 of 6
CC(C)(C)OC(=O)CSC#N,survivor count,"dose: 40.0 mg/kg/injection, schedule: Q01DX001 (ip), vehicle: saline",1 of 4
same,survivor count,"dose: 80.0 mg/kg/injection, schedule: Q01DX001 (ip), vehicle: saline",0 of 4
CN=C1C2CCC(C2)CC1(O)c1ccccc1 (stereo not given),survivor count,[7],1 of 6
S=c1nccc[nH]1,survivor count,[9],2 of 3
